Measurements reported in PubChem BioAssay AID504791 (Drosophila RNAi Screening Center, 2011)
The screen tested about 23,000 reagents; shown is an unselected part of those that have a named target and a result. In the full data, 199 (0.86%) were called active. 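Plate-scaled ratios behind the calls are not deposited; printed light signals are raw; many rows marked increased or decreased are still called inactive.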 A number with no mark means an inactive call. Not stated in the record: the direction of the score.

Aim: 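Genes of the fly required for silencing by miRNA, siRNA or endo-siRNA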 (primary screen)
Cells: Drosophila S2-derived reporter cells
Knock-down reagent: long dsRNA against Drosophila genes, about 150-250 ng dsRNA per well (siRNA assay); about 80-120 ng (miRNA assay)
Time to read-out: about 5 days (siRNA assay); about 4 days (miRNA assay)
Challenge: copper sulfate induction of reporters: 25 µM (siRNA assay); 200 mM stated (miRNA assay), 1-2 days before reading
Measured: 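Per-well ratio of Renilla over firefly light, expressed relative to that plate's average ratio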
Units: stable assay Renilla, run 1 in luminescence; stable assay firefly, run 1 in luminescence
Call rule: 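a well was a first-pass pick when its plate-scaled ratio rose above 1.5 (siRNA assay) or 1.6 (miRNA assay), or dropped below 0.6; a gene counted only if two separate dsRNAs agreed on retest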

What did the screen give for CG33223 [DRSC17572]?
stable assay Renilla, run 1: 5072; stable assay firefly, run 1: 3.62e5

For Pect (Phosphoethanolamine cytidylyltransferase) [DRSC02867], how do the results read?
stable assay Renilla, run 1: 10854; stable assay firefly, run 1: 1.18e6

What is on record for Pect (Phosphoethanolamine cytidylyltransferase) [DRSC02868]?
stable assay Renilla, run 1: 6130; stable assay firefly, run 1: 4.93e5

What is on record for Cisd2 (CDGSH iron sulfur domain 2) [DRSC14904]?
stable assay Renilla, run 1: 6176; stable assay firefly, run 1: 4.36e5

For CG10747 [DRSC02104], what does the deposit list?
stable assay Renilla, run 1: 7034; stable assay firefly, run 1: 4.71e5

What is on record for CG31036 [DRSC15055]?
stable assay Renilla, run 1: 5603; stable assay firefly, run 1: 2.99e5

For CG31036 [DRSC15057], how do the results read?
stable assay Renilla, run 1: 5900; stable assay firefly, run 1: 3.15e5

Which result is listed for Orp8 (Oxysterol-binding protein-related protein 8) [DRSC15110]?
stable assay Renilla, run 1: 2860; stable assay firefly, run 1: 3.91e5

What did the screen give for Orp8 (Oxysterol-binding protein-related protein 8) [DRSC15712]?
stable assay Renilla, run 1: 8544; stable assay firefly, run 1: 3.82e5

With CG3270 [DRSC04988], how do the results read?
stable assay Renilla, run 1: 25343; stable assay firefly, run 1: 1.07e6

How did the screen score CG9377 [DRSC03217]?
stable assay Renilla, run 1: 39817; stable assay firefly, run 1: 1.18e6

How did the screen score conu (conundrum) [DRSC07810]?
stable assay Renilla, run 1: 6435; stable assay firefly, run 1: 4.56e5

What is on record for Pdfr (Pigment-dispersing factor receptor) [DRSC18614]?
stable assay Renilla, run 1: 5502; stable assay firefly, run 1: 3.21e5

For d-cup (davis-cup) [DRSC14846], what was measured?
stable assay Renilla, run 1: 7056; stable assay firefly, run 1: 4.68e5

Which result is listed for CG13170 [DRSC06298]?
stable assay Renilla, run 1: 6155; stable assay firefly, run 1: 4.02e5

For Arms (Ankyrin repeat-rich membrane spanning) [DRSC03856], what does the deposit list?
stable assay Renilla, run 1: 5370; stable assay firefly, run 1: 5.12e5

For Arms (Ankyrin repeat-rich membrane spanning) [DRSC03857], how do the results read?
stable assay Renilla, run 1: 4886; stable assay firefly, run 1: 2.37e5

Which result is listed for Arms (Ankyrin repeat-rich membrane spanning) [DRSC04052]?
stable assay Renilla, run 1: 93110; stable assay firefly, run 1: 1.46e6

With Arms (Ankyrin repeat-rich membrane spanning) [DRSC04256], how do the results read?
stable assay Renilla, run 1: 5175; stable assay firefly, run 1: 2.40e5

Entries listed so far whose gene name starts with A or a (4):
Arms (Ankyrin repeat-rich membrane spanning) [DRSC03856]: stable assay Renilla, run 1 = 5370; stable assay firefly, run 1 = 5.12e5
Arms (Ankyrin repeat-rich membrane spanning) [DRSC03857]: stable assay Renilla, run 1 = 4886; stable assay firefly, run 1 = 2.37e5
Arms (Ankyrin repeat-rich membrane spanning) [DRSC04052]: stable assay Renilla, run 1 = 93110; stable assay firefly, run 1 = 1.46e6
Arms (Ankyrin repeat-rich membrane spanning) [DRSC04256]: stable assay Renilla, run 1 = 5175; stable assay firefly, run 1 = 2.40e5
